Reference: the supplement of paper PMC4604168 (melanoma cell lines)
The other results are listed elsewhere or left out. Single values are uncertain, as repeats are few or missing.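 The apoptosis fraction was the count of cleaved-PARP antibody-stained nuclei relative to all DNA-stained nuclei, imaged in 1,536-well plates. Screening doses were set so most cells survived, and baseline and induced cleaved-PARP levels vary greatly across cell lines.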

Experiments:
Test in all cases: cleaved PARP positive nuclei fraction relative to DMSO control; melanoma cells; higher = more apoptosis
Conditions in all cases: library dose: low library concentration; 72 h
CBRC034 = test system: CBRC034 (line from a melanoma biopsy)
COLO792 = test system: COLO792
COLO800 = test system: COLO800
COLO829 = test system: COLO829
G361 = test system: G361
IPC-298 = test system: IPC-298
IST-MEL1 = test system: IST-MEL1
LB2518-MEL = test system: LB2518-MEL
LOXIMVI = test system: LOXIMVI

| Compound | cleaved PARP positive nuclei fraction (CBRC034) [%] | cleaved PARP positive nuclei fraction (COLO792) [%] | cleaved PARP positive nuclei fraction (COLO800) [%] | cleaved PARP positive nuclei fraction (COLO829) [%] | cleaved PARP positive nuclei fraction (G361) [%] | cleaved PARP positive nuclei fraction (IPC-298) [%] | cleaved PARP positive nuclei fraction (IST-MEL1) [%] | cleaved PARP positive nuclei fraction (LB2518-MEL) [%] | cleaved PARP positive nuclei fraction (LOXIMVI) [%] |
| --- | --- | --- | --- | --- | --- | --- | --- | --- | --- |
| CN(NC(=O)CC(=O)NN(C)C(=S)c1ccccc1)C(=S)c1ccccc1 + O=C(Oc1ccc([N+](=O)[O-])cc1)N1CCC(C(O)(c2ccc3c(c2)OCO3)c2ccc3c(c2)OCO3)CC1 [JZL184] (first compound 0.006 µM, partner dose 1 µM) | 122 | 173 | 238 | 119 | 138 | 55.2 | 178 | 92.9 | 20.5 |
| C/C(O)=C(\C#N)C(=O)Nc1cc(Br)ccc1Br + O=C(Oc1ccc([N+](=O)[O-])cc1)N1CCC(C(O)(c2ccc3c(c2)OCO3)c2ccc3c(c2)OCO3)CC1 [JZL184] (first compound 2 µM, partner dose 1 µM) | 43.3 | 50.1 | 99.9 | 67.1 | 69.8 | 78.7 | 156 | 95.4 | 77.6 |
| O=C(Nc1ccccc1)c1cc([N+](=O)[O-])ccc1Cl + O=C(Oc1ccc([N+](=O)[O-])cc1)N1CCC(C(O)(c2ccc3c(c2)OCO3)c2ccc3c(c2)OCO3)CC1 [JZL184] (first compound 2 µM, partner dose 1 µM) | 51.7 | 65.7 | 72.6 | 80.8 | 81.8 | 99.8 | 200 | 75.3 | 77.4 |
| CO[C@@H]1[C@H](N(C)C(=O)c2ccccc2)C[C@H]2O[C@]1(C)n1c3ccccc3c3c4c(c5c6ccccc6n2c5c31)C(=O)NC4 [Midostaurin] + C/C(O)=C(\C#N)C(=O)Nc1cc(Br)ccc1Br [LFM-A13] (first compound 0.08 µM, partner dose 2 µM) | 96 | 236 | 218 | 94.4 | 180 | 215 | 92.6 | 148 | 20.4 |
| O=C(Nc1ccccc1)c1cc([N+](=O)[O-])ccc1Cl + Cc1cc(SCc2sc(-c3ccc(C(F)(F)F)c(F)c3)nc2C)ccc1OCC(=O)O [GW0742] (first compound 2 µM, partner dose 2 µM) | 190 | 96.1 | 104 | 121 | 239 | 215 | 177 | 186 | 43.7 |
| Cn1nnc2c(C(N)=O)ncn2c1=O [temozolomide] + O=C(Oc1ccc([N+](=O)[O-])cc1)N1CCC(C(O)(c2ccc3c(c2)OCO3)c2ccc3c(c2)OCO3)CC1 [JZL184] (first compound 2 µM, partner dose 1 µM) | 161 | 106 | 101 | 146 | 54.4 | 110 | 189 | 71 | 54 |
| CN(C)S(=O)(=O)c1ccc2c(c1)/C(=C/c1cc3c([nH]1)CCCC3)C(=O)N2 + Cc1cc(SCc2sc(-c3ccc(C(F)(F)F)c(F)c3)nc2C)ccc1OCC(=O)O [GW0742] (first compound 0.4 µM, partner dose 2 µM) | 91.1 | 68.6 | 97.5 | 123 | 69.7 | 211 | 697 | 167 | 72.6 |
| NC(=O)Nc1cc(-c2cccc(F)c2)sc1C(=O)N[C@H]1CCCNC1 + Cc1cc(SCc2sc(-c3ccc(C(F)(F)F)c(F)c3)nc2C)ccc1OCC(=O)O [GW0742] (first compound 0.02 µM, partner dose 2 µM) | 96.7 | 60.8 | 135 | 97.5 | 130 | 73.5 | 25.2 | 190 | 107 |
| C[As](C)SC[C@H](NC(=O)CC[C@H](N)C(=O)O)C(=O)NCC(=O)O [Darinaparsin] + CC(C)CCN1c2nc(Nc3cc(F)c(O)c(F)c3)ncc2N(C)C(=O)C1C [BID1870] (first compound 0.4 µM, partner dose 0.2 µM) | 87.5 | 93.4 | 161 | 81.2 | 94.9 | 41.6 | 45.7 | 95.6 | 71.3 |
| Cc1cc(SCc2sc(-c3ccc(C(F)(F)F)c(F)c3)nc2C)ccc1OCC(=O)O + O=C(O)C(=O)Nc1sc2c(c1C(=O)O)CCNC2 [TCS401] (first compound 2 µM, partner dose 1.66667 µM) | 43.6 | 94.6 | 147 | 124 | 46.8 | 69.3 | 123 | 116 | 29.5 |
| C[As](C)SC[C@H](NC(=O)CC[C@H](N)C(=O)O)C(=O)NCC(=O)O [Darinaparsin] + O=C(Oc1ccc([N+](=O)[O-])cc1)N1CCC(C(O)(c2ccc3c(c2)OCO3)c2ccc3c(c2)OCO3)CC1 [JZL184] (first compound 0.4 µM, partner dose 1 µM) | 54.6 | 65.9 | 137 | 140 | 70.7 | 55.2 | 59.5 | 80.4 | 21.7 |
| OCCn1cc(-c2cnc3nnn(Cc4ccc5ncccc5c4)c3n2)cn1 + Cc1cc(SCc2sc(-c3ccc(C(F)(F)F)c(F)c3)nc2C)ccc1OCC(=O)O [GW0742] (first compound 1 µM, partner dose 2 µM) | 93.6 | 134 | 134 | 148 | 90.6 | 277 | 57.9 | 88.3 | 67.5 |
| Cc1nc(Nc2ncc(C(=O)Nc3c(C)cccc3Cl)s2)cc(N2CCN(CCO)CC2)n1 [dasatanib] + C/C(O)=C(\C#N)C(=O)Nc1cc(Br)ccc1Br [LFM-A13] (first compound 0.004 µM, partner dose 2 µM) | 462 | 215 | 163 | 91.8 | 132 | 74.1 | 90.3 | 42.2 | 110 |
| Nc1cccc2c1CN(C1CCC(=O)NC1=O)C2=O (configuration not stated) [lenalidomide] + C/C(O)=C(\C#N)C(=O)Nc1cc(Br)ccc1Br [LFM-A13] (first compound 1 µM, partner dose 2 µM) | 53.1 | 116 | 145 | 106 | 141 | 164 | 45.4 | 197 | 87.9 |
| Cc1ccc(NC(=O)c2cccc(N(C)C)c2)cc1NC(=O)c1ccc(O)cc1 + O=C(Oc1ccc([N+](=O)[O-])cc1)N1CCC(C(O)(c2ccc3c(c2)OCO3)c2ccc3c(c2)OCO3)CC1 [JZL184] (first compound 2 µM, partner dose 1 µM) | 53.2 | 85.8 | 52.6 | 83.8 | 81.6 | 210 | 28.2 | 194 | 74.8 |
| C[As](C)SC[C@H](NC(=O)CC[C@H](N)C(=O)O)C(=O)NCC(=O)O [Darinaparsin] + Cc1cc([N+](=O)[O-])ccc1NS(=O)(=O)c1cc(Cl)ccc1Cl [FH535] (first compound 0.4 µM, partner dose 1 µM) | 218 | 62.6 | 173 | 54.7 | 124 | 42.9 | 191 | 162 | 36.3 |
| C[As](C)SC[C@H](NC(=O)CC[C@H](N)C(=O)O)C(=O)NCC(=O)O [Darinaparsin] + Oc1nc(-c2ccc(C(F)(F)F)cc2)nc2c1CSCC2 [XAV939] (first compound 0.4 µM, partner dose 2 µM) | 39.5 | 69.5 | 12.8 | 49.5 | 71.2 | 125 | 128 | 79.3 | 23.8 |
| COC(=O)c1sccc1S(=O)(=O)Nc1ccc(Nc2ccccc2)cc1OC + O=C(Oc1ccc([N+](=O)[O-])cc1)N1CCC(C(O)(c2ccc3c(c2)OCO3)c2ccc3c(c2)OCO3)CC1 [JZL184] (first compound 1 µM, partner dose 1 µM) | 84.1 | 42.7 | 106 | 70.5 | 86.9 | 45.5 | 44.1 | 154 | 41.6 |
| C/C(O)=C(\C#N)C(=O)Nc1cc(Br)ccc1Br + Cn1cc(/C=C2\C(=O)Nc3cccnc32)c2ccccc21 [GW441756] (first compound 2 µM, partner dose 0.4 µM) | 80 | 172 | 78.5 | 163 | 148 | 90.9 | 59.2 | 75.4 | 64.5 |
| CCN(CC)CCCCNc1ncc2cc(-c3cc(OC)cc(OC)c3)c(NC(=O)NC(C)(C)C)nc2n1 + Cc1cc(SCc2sc(-c3ccc(C(F)(F)F)c(F)c3)nc2C)ccc1OCC(=O)O [GW0742] (first compound 0.1 µM, partner dose 2 µM) | 97.4 | 99.6 | 91.8 | 122 | 63 | 65.3 | 79.3 | 164 | 61.1 |
| Nc1cccc2c1CN(C1CCC(=O)NC1=O)C2=O (configuration not stated) [lenalidomide] + Cc1cc(SCc2sc(-c3ccc(C(F)(F)F)c(F)c3)nc2C)ccc1OCC(=O)O [GW0742] (first compound 1 µM, partner dose 2 µM) | 88.1 | 144 | 152 | 66.5 | 76.3 | 41.1 | 116 | 79.6 | 80.5 |
| C[As](C)SC[C@H](NC(=O)CC[C@H](N)C(=O)O)C(=O)NCC(=O)O [Darinaparsin] + COC(=O)c1sccc1S(=O)(=O)Nc1ccc(Nc2ccccc2)cc1OC [GSK0660] (first compound 0.4 µM, partner dose 1 µM) | 101 | 69.3 | 212 | 115 | 50.2 | 115 | 129 | 241 | 78 |
| C#Cc1cccc(Nc2ncnc3cc(OCCOC)c(OCCOC)cc23)c1 [erlotinib] + C/C(O)=C(\C#N)C(=O)Nc1cc(Br)ccc1Br [LFM-A13] (first compound 0.8 µM, partner dose 2 µM) | 167 | 78.1 | 167 | 94.1 | 102 | 131 | 88.6 | 87.3 | 66.4 |
| COc1ccc(-c2ccc3c(N4CCOCC4)nc(N4C[C@@H](C)O[C@@H](C)C4)nc3n2)cc1CO + Cc1cc(SCc2sc(-c3ccc(C(F)(F)F)c(F)c3)nc2C)ccc1OCC(=O)O [GW0742] (first compound 0.02 µM, partner dose 2 µM) | 42.9 | 75.2 | 12 | 100 | 138 | 103 | 175 | 40 | 102 |
| O=S(=O)(c1ccccc1)N(CC(F)(F)F)c1ccc(C(O)(C(F)(F)F)C(F)(F)F)cc1 + Cc1cc(SCc2sc(-c3ccc(C(F)(F)F)c(F)c3)nc2C)ccc1OCC(=O)O [GW0742] (first compound 1.4 µM, partner dose 2 µM) | 42.2 | 141 | 45 | 70.4 | 130 | 91.1 | 123 | 86.1 | 11.6 |
| COC(=O)c1sccc1S(=O)(=O)Nc1ccc(Nc2ccccc2)cc1OC + Cc1cc(SCc2sc(-c3ccc(C(F)(F)F)c(F)c3)nc2C)ccc1OCC(=O)O [GW0742] (first compound 1 µM, partner dose 2 µM) | 48.9 | 60.6 | 42.3 | 115 | 90.2 | 40.3 | 43.8 | 73 | 69.5 |
| O=C(CCCCCCC(=O)Nc1ccccc1)NO [vorinostat] + C/C(O)=C(\C#N)C(=O)Nc1cc(Br)ccc1Br [LFM-A13] (first compound 0.08 µM, partner dose 2 µM) | 132 | 68 | 105 | 33 | 71.2 | 117 | 84.9 | 42.8 | 40.8 |
| O=C(O)c1ccc(-c2c[nH]c3ncc(-c4ccccc4)cc23)cc1C1CCCC1 + C/C(O)=C(\C#N)C(=O)Nc1cc(Br)ccc1Br [LFM-A13] (first compound 0.16 µM, partner dose 2 µM) | 182 | 126 | 63.5 | 68.1 | 116 | 87.5 | 194 | 251 | 160 |

Whole records as entered above. Order of values: cleaved PARP positive nuclei fraction (CBRC034) [%] | cleaved PARP positive nuclei fraction (COLO792) [%] | cleaved PARP positive nuclei fraction (COLO800) [%] | cleaved PARP positive nuclei fraction (COLO829) [%] | cleaved PARP positive nuclei fraction (G361) [%] | cleaved PARP positive nuclei fraction (IPC-298) [%] | cleaved PARP positive nuclei fraction (IST-MEL1) [%] | cleaved PARP positive nuclei fraction (LB2518-MEL) [%] | cleaved PARP positive nuclei fraction (LOXIMVI) [%]
COC(=O)c1sccc1S(=O)(=O)Nc1ccc(Nc2ccccc2)cc1OC + Cc1cc(SCc2sc(-c3ccc(C(F)(F)F)c(F)c3)nc2C)ccc1OCC(=O)O [GW0742] (first compound 1 µM, partner dose 2 µM) as listed: 48.9 | 60.6 | 42.3 | 115 | 90.2 | 40.3 | 43.8 | 73 | 69.5
Cn1nnc2c(C(N)=O)ncn2c1=O [temozolomide] + O=C(Oc1ccc([N+](=O)[O-])cc1)N1CCC(C(O)(c2ccc3c(c2)OCO3)c2ccc3c(c2)OCO3)CC1 [JZL184] (first compound 2 µM, partner dose 1 µM) as listed: 161 | 106 | 101 | 146 | 54.4 | 110 | 189 | 71 | 54
